# The whole screen tested about 300,000 compounds, of which about 5,400 (1.8%) were called active. Inconclusive results, whose numbers are uncertain, are shown with a selection of clear calls. Calls follow the shape of the full dose curve; tested in HEK293 cells. Potencies of inconclusive entries are doubtful fits and often do not repeat.
# Test: qHTS for inhibitors of binding or entry into cells for Marburg Virus
# Conditions: Marburg virus pseudotyped entry inhibition, cell reporter; activity change, negative = inhibition: at 37.8 µM (top of the series) unless noted
# % is scaled to controls: 0 for no effect and ±100 for the full control effect; potency is read from the fitted curve at half-maximal effect.
Compound,Potency,"activity change, negative = inhibition"
COC(=O)c1c(C)[nH]c(C(=O)C(C)OC(=O)C2CC2)c1C (stereo not drawn),"inconclusive: 0.282 µM [inhibitor, full curve, poor fit]",–
CC(Oc1ccc2c(-c3ccccc3)cc(=O)oc2c1)C(=O)NC(Cc1c[nH]c2ccccc12)C(=O)O (stereo not drawn),"inconclusive: 0.631 µM [inhibitor, full curve, poor fit]",–
Cc1nn2cc(-c3ncc(C(F)(F)F)cc3Cl)cnc2c1Br,"inconclusive: 7.94 µM [inhibitor, partial curve, poor fit]",–
Cc1cc(=O)n2[nH]c(-c3ccc(Cl)cc3)cc2n1,"inconclusive: 35.5 µM [inhibitor, single point]",–
O=C(NC(=S)N1CCN(Cc2ccc3c(c2)OCO3)CC1)c1ccc(Cl)cc1,"inconclusive: 5.62 µM [activator, single point]",–
O=C(O)c1nn(CCOc2ccc(Br)cc2)c(=O)c2ccccc12,–,inactive: 2.72% [at 46.1 µM]
Cc1ccc(-n2c(=O)[nH]c3c(C(N)=O)nc(C(C)C)nc32)cc1,"inconclusive: 15.8 µM [inhibitor, single point]",–
O=C(NNC(=O)C1CC1c1ccccc1)c1ccccc1F (stereo not drawn),"inconclusive: 35.5 µM [activator, single point]",–
NS(=O)(=O)c1ccc(C(=O)O)cc1,"inconclusive: 6.51 µM [activator, single point]",–
CCC1(N(C(C)=O)c2ccc(OC)cc2)C(=O)c2ccccc2C1=O,"inconclusive: 16.4 µM [inhibitor, partial curve, poor fit]",–
Oc1cccc(Nc2nc(NCC3CCCO3)c3ccccc3n2)c1 (stereo not drawn),"inconclusive: 6.31 µM [inhibitor, full curve, poor fit]",–
Cc1cccc(N(C)C(=O)c2cc3c(=O)[nH]c4ccc(C)cc4c3s2)c1,active: 3.55 µM,–
C[C@H]1[C@@H](c2ccccc2)Oc2c(Cl)cccc2S(=O)(=O)N1Cc1ccc(F)cc1,"inconclusive: 9.95 µM [inhibitor, full curve, poor fit]",–
CC(=Nc1cc(C(=O)c2ccccc2)ccc1N)C1=C(O)CC(C)(C)CC1=O,"inconclusive: 3.55 µM [activator, single point]",–
CCOc1cc(C#N)c(-n2nnc3c(sc4nc(C)cc(C)c43)c2=O)cc1OCC,"inconclusive: 5.01 µM [activator, single point]",–
O=C(Nc1nccs1)c1cc(-c2ccco2)nc2ccccc12,"inconclusive: 0.631 µM [activator, full curve, poor fit]",–
CCCCN(C(=O)CN1C(=O)C2CCCCC2C1=O)c1c(N)n(CCC)c(=O)[nH]c1=O (stereo not drawn),"inconclusive: 35.5 µM [activator, single point]",–
COc1ccc(CN2CCN(CC=C(C)C)C(CCO)C2)cc1Cn1cncn1 (stereo not drawn),"inconclusive: 5.62 µM [inhibitor, single point]",–
COc1ccc(NC(=O)c2oc3ccccc3c2NC(=O)C2CCCCC2)c(OC)c1,–,inactive: 7.79% [at 46.1 µM]
CCCCCCC(=O)N(O)C1CC(=O)N(Cc2ccccc2)C1=O (stereo not drawn),"inconclusive: 29.1 µM [inhibitor, single point]",–
CCCn1c(=O)c2ccccc2n2c(SCc3c(C(=O)OCC)oc4ccccc34)nnc12,"inconclusive: 5.17 µM [inhibitor, partial curve, poor fit]",–

Compound,Potency,"activity change, negative = inhibition"
CN(C)CCCC(C)(O)C(C)(C)c1ccccc1 (stereo not drawn),–,inactive: 4.54%
CCCC(=O)OCCNC(=O)c1cc2ccccc2oc1=O,–,inactive: 8.49% [at 46.1 µM]
CCCN(CC1CCCO1)C(=O)CCc1nnc(-c2cc(C)on2)o1 (stereo not drawn),"inconclusive: 31.6 µM [activator, single point]",–
CCc1ccc(S(=O)(=O)Nc2nccs2)cc1,–,inactive: 27.9%
Nc1c(N(Cc2ccccc2)C(=O)CCc2ccccc2)c(=O)[nH]c(=O)n1Cc1ccccc1,–,inactive: -1.1%
O=C(NC(NC(=S)Nc1cccc(Cl)c1)C(Cl)(Cl)Cl)OCc1ccccc1 (stereo not drawn),"inconclusive: 29.1 µM [inhibitor, single point]",–
Nc1ccc(Nc2nc(-c3ccncc3)cs2)cc1,"inconclusive: 3.26 µM [inhibitor, full curve, poor fit]",–
CCN(Cc1ccncc1)Cc1c(O)ccc2cc(Br)ccc12,"inconclusive: 1.12 µM [inhibitor, partial curve, poor fit]",–
CC[C@@H](O)C[C@H]1CCC[C@@]2(C[C@@H]3OC(=O)/C=C/[C@@](C)(O)[C@@H](O)[C@H](C)[C@@H](O)[C@H](OC4CCC(N(C)C)C(C)O4)[C@@H](O)[C@](C)(O)CCCCC/C=C/[C@@H]4CC(C)(C)O[C@@]4(O)C[C@H](O2)[C@H]3C)O1 (stereo partly drawn),–,inactive: -24.9%
COc1ccc(-c2csc(NC(=O)C3CCCCN3S(=O)(=O)c3ccccc3)n2)cc1 (stereo not drawn),"inconclusive: 11.2 µM [inhibitor, partial curve, poor fit]",–
COc1ccc(NC(=S)NC(NC(=O)c2cccc(Cl)c2)C(Cl)(Cl)Cl)c([N+](=O)[O-])c1 (stereo not drawn),–,inactive: -7.97%
C/C(=N\NC(=O)CNc1cccc2ccccc12)c1ccc(Br)s1,"inconclusive: 1.41 µM [activator, partial curve, poor fit]",–
CCOC(=O)Cc1csc(NC(=O)Nc2ccc(F)cc2)n1,"inconclusive: 35.5 µM [inhibitor, single point]",–
CCOc1ccc(OCC)c(NC(=O)CSc2nc3ccccc3c(=O)n2C)c1,"inconclusive: 20.6 µM [inhibitor, single point]",–
Cc1cccc(N2CCN(C(=O)c3cc4c(=O)[nH]c5ccc(C)cc5c4s3)CC2C)c1 (stereo not drawn),"inconclusive: 31.6 µM [activator, single point]",–
CCOC(=O)N1CCN(S(=O)(=O)c2ccc(C(=O)N(CCCN(C)C)c3nc4ccc(CC)cc4s3)cc2)CC1,"inconclusive: 28.2 µM [inhibitor, single point]",–
CC(C)C(=O)N1CCN(c2ccccc2NC(=O)c2cccc(Cl)c2)CC1,"inconclusive: 3.55 µM [inhibitor, full curve, poor fit]",–
COc1ccc(CNC(=O)CSCc2cnn(-c3ccccc3)c2-n2cccc2)cc1OC,"inconclusive: 11.2 µM [inhibitor, partial curve, poor fit]",–
COC(=O)CC1=C(c2ccc([N+](=O)[O-])cc2)CCC1=O,–,inactive: -7% [at 46.1 µM]
NS(=O)(=O)c1ccc(CCNC(=O)COC(=O)C2CCCN2C(=O)c2cccs2)cc1 (stereo not drawn),"inconclusive: 0.058 µM [inhibitor, partial curve, poor fit]",–
COc1ccc(NC(=O)CCNC(=O)c2ccco2)cc1Cl,–,inactive: 5.48% [at 46.1 µM]

Compound,Potency,"activity change, negative = inhibition"
CN1CCC(N(C)c2nc(-c3ccccc3)nc3ccccc23)CC1,"inconclusive: 29.1 µM [inhibitor, single point]",–
CCC(C)N(C(=O)Cn1nnc2ccccc21)C(C(=O)Nc1ccc(F)cc1)c1cccc(OC)c1 (stereo not drawn),"inconclusive: 25.9 µM [inhibitor, partial curve, poor fit]",–
COc1ccc(C2c3ccc(O)cc3Oc3ncn4nc(-c5cccnc5)nc4c32)cc1OC (stereo not drawn),"inconclusive: 14.1 µM [inhibitor, partial curve, poor fit]",–
O=C(Nc1ccc(/C=C/c2nc3ccccc3o2)cc1)c1c(F)cccc1F,"inconclusive: 35.5 µM [inhibitor, single point]",–
O=C(/C=C/c1ccco1)Nc1ccccc1C(=O)O,"inconclusive: 12.6 µM [inhibitor, single point]",–
O=C(CCc1nc2ccccc2[nH]c1=O)OCC(=O)c1ccc(Cl)cc1,"inconclusive: 7.3 µM [inhibitor, single point]",–
O=C(CN1CCN(c2ccccn2)CC1)Nc1ccc(Oc2ccccc2)cc1,"inconclusive: 35.5 µM [inhibitor, single point]",–
COc1ccc(C=O)cc1COc1ccc(F)cc1F,–,inactive: 0.184%
COc1ccc2c(CN3CC=C(c4ccccc4)CC3)cc(=O)oc2c1,"inconclusive: 3.16 µM [inhibitor, single point]",–
Cc1cc(C)cc(CN2CCC(Oc3ccc(C(=O)N4CCCC4)cc3)CC2)c1,"inconclusive: 1.78 µM [inhibitor, partial curve, poor fit]",–
O=C(O)c1cc2nc3c(c(C(F)(F)F)n2n1)CCCC3,–,inconclusive: 42.2% [activator] [at 46.1 µM]
CN1C2=CC=CC=CC2=[N+](C)C12C([N+](=O)[O-])=CC(=[N+]([O-])[O-])C=C2[N+](=O)[O-] (stereo not drawn),"inconclusive: 1 µM [inhibitor, full curve, poor fit]",–
O=C1CN(S(=O)(=O)c2ccccc2)CC(=O)N1CCc1ccccc1,–,inactive: -2.92%
CCC(=O)Nc1ccc(-c2nnc(SCC(=O)Nc3nccs3)n2C)cc1,–,inactive: 13%
COc1cccc(C(=O)NCC(=O)N2CCN(c3ccc(C(F)(F)F)cn3)CC2)c1,"inconclusive: 12.6 µM [inhibitor, single point]",–
OC(COc1ccc(OCc2ccccc2)cc1)CN1CCCCC1 (stereo not drawn),"inconclusive: 29.1 µM [inhibitor, single point]",–
COc1cc(-c2nnc3n2N=C(c2ccccc2)CS3)cc(OC)c1OC,"inconclusive: 0.206 µM [inhibitor, full curve, poor fit]",–
COc1ccc(Nc2cc(C(=O)NCCCN3CCN(C)CC3)c3ccccc3n2)cc1OC,–,inactive: 1.35% [at 46.1 µM]
COc1ccc(CCNC(=O)c2ccc3c(Cl)c4c(nc3c2)CCCC4)cc1OC,–,inactive: -1.98% [at 46.1 µM]
COc1ccc(-c2nc3ncccc3n2O)cc1,"inconclusive: 22.4 µM [activator, single point]",–
CCc1ccc(OCC(=O)N/N=C(\C)c2ccccc2OC(F)F)cc1,"inconclusive: 35.5 µM [inhibitor, partial curve, poor fit]",–

# Part of the list above in a different format:
Compound	Potency	activity change, negative = inhibition
O=C(O)c1nn(CCOc2ccc(Br)cc2)c(=O)c2ccccc12	–	inactive: 2.72% [at 46.1 µM]
CCCN(CC1CCCO1)C(=O)CCc1nnc(-c2cc(C)on2)o1 (stereo not drawn)	inconclusive: 31.6 µM [activator, single point]	–
CC[C@@H](O)C[C@H]1CCC[C@@]2(C[C@@H]3OC(=O)/C=C/[C@@](C)(O)[C@@H](O)[C@H](C)[C@@H](O)[C@H](OC4CCC(N(C)C)C(C)O4)[C@@H](O)[C@](C)(O)CCCCC/C=C/[C@@H]4CC(C)(C)O[C@@]4(O)C[C@H](O2)[C@H]3C)O1 (stereo partly drawn)	–	inactive: -24.9%

# — PubChem BioAssay AID540276 (National Center for Advancing Translational Sciences (NCATS), 2011)
